From the supplement of paper PMC10849652
Some of the results follow.

Protein sequences, listed by entry. Tags and fused reporters are not part of them. Lines headed by an entry give the natural chain unless they say otherwise; changes in a name come on top.
UniProt Q86Y37: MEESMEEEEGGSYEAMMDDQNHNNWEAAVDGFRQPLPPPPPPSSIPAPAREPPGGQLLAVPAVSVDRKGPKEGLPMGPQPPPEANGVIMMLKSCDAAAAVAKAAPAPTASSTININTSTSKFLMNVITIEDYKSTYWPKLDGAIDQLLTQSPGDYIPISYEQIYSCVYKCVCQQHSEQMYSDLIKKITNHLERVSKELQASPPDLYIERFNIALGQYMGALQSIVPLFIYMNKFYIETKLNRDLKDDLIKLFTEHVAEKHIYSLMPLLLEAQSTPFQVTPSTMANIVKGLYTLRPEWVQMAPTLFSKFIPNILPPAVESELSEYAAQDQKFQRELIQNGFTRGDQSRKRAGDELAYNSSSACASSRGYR
UniProt P0C0L4: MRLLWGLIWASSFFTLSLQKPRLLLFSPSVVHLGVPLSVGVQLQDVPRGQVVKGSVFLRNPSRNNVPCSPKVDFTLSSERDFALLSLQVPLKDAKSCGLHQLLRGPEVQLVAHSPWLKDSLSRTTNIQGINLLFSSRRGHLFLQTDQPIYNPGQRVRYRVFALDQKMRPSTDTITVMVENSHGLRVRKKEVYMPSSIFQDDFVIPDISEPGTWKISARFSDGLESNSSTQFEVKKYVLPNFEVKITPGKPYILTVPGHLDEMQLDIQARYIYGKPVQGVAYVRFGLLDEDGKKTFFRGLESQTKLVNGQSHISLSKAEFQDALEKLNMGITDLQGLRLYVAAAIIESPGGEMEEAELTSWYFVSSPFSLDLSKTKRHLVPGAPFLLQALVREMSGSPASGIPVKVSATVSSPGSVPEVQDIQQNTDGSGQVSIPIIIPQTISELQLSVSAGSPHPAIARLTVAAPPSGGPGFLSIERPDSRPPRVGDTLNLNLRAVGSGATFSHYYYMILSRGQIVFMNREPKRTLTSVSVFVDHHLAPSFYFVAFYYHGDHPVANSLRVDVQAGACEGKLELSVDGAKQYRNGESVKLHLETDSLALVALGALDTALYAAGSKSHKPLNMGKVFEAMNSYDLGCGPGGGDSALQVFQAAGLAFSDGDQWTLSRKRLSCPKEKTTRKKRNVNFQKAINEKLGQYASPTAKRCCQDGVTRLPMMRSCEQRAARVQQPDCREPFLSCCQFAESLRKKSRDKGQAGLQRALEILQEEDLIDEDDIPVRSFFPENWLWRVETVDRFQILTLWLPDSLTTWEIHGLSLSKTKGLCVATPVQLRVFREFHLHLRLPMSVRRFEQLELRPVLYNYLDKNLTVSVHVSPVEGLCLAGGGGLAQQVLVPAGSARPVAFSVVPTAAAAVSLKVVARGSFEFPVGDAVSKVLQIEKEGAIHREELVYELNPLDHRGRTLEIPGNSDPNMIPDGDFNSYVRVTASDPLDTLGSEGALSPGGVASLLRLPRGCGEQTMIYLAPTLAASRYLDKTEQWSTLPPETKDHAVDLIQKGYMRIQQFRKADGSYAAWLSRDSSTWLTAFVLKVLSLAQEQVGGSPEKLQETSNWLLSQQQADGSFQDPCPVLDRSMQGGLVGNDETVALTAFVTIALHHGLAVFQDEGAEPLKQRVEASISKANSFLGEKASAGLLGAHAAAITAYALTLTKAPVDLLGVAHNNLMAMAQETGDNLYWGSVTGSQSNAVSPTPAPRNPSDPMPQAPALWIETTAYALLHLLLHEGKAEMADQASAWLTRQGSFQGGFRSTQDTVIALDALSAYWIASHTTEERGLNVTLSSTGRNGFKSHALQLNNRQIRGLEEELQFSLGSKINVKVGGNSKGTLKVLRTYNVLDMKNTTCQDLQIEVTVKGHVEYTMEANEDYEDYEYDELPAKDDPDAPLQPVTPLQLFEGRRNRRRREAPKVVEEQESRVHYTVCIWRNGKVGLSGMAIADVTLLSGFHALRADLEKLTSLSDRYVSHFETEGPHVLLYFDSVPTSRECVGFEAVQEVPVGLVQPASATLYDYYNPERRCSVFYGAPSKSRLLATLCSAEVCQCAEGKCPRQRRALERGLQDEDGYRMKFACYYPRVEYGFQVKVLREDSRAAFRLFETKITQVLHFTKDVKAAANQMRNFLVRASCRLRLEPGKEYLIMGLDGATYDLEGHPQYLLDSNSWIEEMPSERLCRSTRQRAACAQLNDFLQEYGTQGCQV
UniProt Q9BPX7: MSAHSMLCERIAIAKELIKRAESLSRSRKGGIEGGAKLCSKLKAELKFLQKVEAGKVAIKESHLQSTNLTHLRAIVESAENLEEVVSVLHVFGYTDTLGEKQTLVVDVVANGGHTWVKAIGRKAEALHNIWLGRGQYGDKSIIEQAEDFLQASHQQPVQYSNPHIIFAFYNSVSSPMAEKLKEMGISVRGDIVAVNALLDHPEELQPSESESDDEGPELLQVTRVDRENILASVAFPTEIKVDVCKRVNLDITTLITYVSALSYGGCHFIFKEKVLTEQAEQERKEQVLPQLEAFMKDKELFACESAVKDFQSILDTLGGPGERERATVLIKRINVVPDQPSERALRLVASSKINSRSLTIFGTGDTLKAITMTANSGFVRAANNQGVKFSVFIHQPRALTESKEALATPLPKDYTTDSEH
UniProt P0DMB2: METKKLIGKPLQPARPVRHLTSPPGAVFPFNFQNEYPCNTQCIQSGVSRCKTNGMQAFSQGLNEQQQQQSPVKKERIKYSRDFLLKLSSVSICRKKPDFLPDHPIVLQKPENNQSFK
UniProt Q9BSU1: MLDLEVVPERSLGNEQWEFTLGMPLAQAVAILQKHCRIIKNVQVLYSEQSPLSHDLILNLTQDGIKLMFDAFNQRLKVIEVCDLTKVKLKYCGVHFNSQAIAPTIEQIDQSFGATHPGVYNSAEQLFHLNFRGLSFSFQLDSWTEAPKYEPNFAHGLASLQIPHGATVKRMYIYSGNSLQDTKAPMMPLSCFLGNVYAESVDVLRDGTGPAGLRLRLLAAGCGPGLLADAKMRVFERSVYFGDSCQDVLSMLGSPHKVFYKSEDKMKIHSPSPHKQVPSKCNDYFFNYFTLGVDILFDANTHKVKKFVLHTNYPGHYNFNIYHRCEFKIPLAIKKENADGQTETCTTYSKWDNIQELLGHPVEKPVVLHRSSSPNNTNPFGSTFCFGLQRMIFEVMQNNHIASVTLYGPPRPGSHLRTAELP
UniProt Q9NS00: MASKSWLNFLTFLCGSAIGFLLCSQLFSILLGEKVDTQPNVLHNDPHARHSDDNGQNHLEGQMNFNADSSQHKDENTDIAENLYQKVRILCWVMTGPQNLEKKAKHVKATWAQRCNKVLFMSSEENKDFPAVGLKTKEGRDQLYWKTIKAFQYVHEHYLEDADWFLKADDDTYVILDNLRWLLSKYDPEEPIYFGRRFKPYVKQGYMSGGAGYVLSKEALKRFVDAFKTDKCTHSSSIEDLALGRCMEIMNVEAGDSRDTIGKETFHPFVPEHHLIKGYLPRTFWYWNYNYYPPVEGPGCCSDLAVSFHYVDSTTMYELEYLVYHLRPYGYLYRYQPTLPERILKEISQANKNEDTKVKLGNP
UniProt Q6PH81: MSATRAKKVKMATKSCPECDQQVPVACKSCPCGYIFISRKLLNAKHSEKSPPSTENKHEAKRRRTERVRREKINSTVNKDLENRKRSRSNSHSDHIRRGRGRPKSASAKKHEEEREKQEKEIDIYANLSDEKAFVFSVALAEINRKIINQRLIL
UniProt Q01518, whole entry, looked up: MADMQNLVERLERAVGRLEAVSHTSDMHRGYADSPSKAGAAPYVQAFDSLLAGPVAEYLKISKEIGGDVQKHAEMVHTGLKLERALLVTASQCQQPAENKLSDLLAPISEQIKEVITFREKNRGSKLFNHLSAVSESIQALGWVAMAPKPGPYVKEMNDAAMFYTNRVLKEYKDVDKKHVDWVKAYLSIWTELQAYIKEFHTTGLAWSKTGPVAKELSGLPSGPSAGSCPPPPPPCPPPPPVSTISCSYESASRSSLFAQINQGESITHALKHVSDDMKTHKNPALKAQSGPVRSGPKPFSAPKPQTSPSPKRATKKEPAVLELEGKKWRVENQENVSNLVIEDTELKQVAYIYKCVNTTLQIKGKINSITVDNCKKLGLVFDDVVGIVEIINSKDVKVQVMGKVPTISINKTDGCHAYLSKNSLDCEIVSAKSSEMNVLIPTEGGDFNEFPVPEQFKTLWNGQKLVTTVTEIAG
UniProt Q8N3J3: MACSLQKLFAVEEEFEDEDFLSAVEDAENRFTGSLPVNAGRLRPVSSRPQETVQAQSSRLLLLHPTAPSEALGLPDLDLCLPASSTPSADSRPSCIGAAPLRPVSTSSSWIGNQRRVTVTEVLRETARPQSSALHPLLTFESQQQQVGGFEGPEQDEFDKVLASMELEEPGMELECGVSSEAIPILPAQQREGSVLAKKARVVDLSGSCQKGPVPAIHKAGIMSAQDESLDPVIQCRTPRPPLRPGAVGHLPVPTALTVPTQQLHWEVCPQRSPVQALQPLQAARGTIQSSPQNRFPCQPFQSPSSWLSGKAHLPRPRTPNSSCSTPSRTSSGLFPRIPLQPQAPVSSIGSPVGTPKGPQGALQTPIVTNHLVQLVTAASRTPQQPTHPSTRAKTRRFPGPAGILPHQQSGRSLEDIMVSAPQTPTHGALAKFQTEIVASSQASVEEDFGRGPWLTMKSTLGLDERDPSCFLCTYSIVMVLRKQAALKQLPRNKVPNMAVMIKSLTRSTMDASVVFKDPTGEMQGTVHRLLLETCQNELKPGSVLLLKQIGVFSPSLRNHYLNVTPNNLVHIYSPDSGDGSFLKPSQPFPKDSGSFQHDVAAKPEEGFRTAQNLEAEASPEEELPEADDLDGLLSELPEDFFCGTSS
UniProt Q9Y426: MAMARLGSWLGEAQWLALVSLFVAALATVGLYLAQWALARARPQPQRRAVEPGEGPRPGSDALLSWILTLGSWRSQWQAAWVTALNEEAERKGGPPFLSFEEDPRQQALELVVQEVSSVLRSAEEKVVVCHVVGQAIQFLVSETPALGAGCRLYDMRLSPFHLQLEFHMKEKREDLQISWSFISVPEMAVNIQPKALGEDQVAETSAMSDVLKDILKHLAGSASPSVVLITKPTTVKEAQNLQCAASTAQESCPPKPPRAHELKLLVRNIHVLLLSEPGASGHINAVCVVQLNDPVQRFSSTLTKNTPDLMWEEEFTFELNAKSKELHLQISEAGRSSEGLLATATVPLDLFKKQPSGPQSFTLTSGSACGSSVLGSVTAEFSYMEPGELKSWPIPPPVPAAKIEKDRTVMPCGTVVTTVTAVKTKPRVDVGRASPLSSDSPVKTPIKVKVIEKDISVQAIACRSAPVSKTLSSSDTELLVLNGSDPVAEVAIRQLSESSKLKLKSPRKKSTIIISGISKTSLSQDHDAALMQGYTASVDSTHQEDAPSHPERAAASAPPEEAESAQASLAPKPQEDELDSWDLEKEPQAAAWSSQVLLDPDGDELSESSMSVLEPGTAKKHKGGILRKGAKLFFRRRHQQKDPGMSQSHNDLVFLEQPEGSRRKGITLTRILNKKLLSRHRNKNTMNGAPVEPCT
UniProt Q96NL8: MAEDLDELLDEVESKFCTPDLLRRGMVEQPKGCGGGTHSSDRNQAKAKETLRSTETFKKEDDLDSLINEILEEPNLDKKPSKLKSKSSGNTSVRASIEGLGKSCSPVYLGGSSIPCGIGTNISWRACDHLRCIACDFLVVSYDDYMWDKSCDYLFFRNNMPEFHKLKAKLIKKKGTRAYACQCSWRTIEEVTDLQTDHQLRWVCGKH
UniProt Q8IYL3: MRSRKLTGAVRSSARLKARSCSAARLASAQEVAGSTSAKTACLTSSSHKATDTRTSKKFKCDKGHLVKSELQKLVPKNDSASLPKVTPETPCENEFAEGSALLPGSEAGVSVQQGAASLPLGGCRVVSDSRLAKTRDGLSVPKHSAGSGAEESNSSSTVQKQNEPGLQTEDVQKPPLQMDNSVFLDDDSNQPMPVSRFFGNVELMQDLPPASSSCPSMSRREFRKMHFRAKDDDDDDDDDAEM
UniProt Q9BUW7: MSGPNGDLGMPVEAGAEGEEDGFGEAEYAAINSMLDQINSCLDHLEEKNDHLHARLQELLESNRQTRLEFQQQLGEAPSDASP
UniProt Q86VG3: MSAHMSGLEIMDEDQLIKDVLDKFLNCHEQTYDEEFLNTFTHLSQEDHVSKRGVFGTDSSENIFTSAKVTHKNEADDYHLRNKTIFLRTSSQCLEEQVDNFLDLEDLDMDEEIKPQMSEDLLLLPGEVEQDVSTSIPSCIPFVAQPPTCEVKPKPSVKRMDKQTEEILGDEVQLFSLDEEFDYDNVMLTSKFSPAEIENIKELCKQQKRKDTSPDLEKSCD
UniProt Q9NWQ9: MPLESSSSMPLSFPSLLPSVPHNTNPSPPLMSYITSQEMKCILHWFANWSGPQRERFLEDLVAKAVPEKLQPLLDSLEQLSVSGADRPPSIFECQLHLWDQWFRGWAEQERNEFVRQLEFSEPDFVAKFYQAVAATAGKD
UniProt Q96LW7: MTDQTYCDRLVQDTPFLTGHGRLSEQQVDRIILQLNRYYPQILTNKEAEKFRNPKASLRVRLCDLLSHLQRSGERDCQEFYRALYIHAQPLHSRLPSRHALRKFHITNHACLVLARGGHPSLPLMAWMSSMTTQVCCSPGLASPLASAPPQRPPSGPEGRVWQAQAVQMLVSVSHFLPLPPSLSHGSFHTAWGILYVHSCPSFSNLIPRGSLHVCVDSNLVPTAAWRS

Each target was assayed with Cc1nc(Nc2ncc(C(=O)Nc3c(C)cccc3Cl)s2)cc(N2CCN(CCO)CC2)n1 [dasatinib] (assay: log2 fold change, soluble protein after heating vs DMSO (PISA); higher = thermal stabilisation; K562 lysate, 10 uM; active = over 0.2 and 3.5 SD of the protein, either way, in both replicates (recomputed)).
Outline: (§1)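 Pellets of K562 cells were dounce-homogenised in PBS pH 7.4 with 1 mM MgCl2, and the crude extract was held at 1 mg/mL protein for a 30 min treatment with 10 μM compound. Aliquots were heated for 3 min over 48°C-58°C and pooled before NP-40 was added to 0.5% at 4°C. The supernatant from 21,000xg for 90 min was quantified by TMTpro 16plex LC-MS/MS with channel sums equalised. Values are reported from duplicates as log-two fold change in thermal stability relative to solvent controls.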

log2 fold change, inactive:
CAPNS1 (UniProt K7ES78) -0.027, CACUL1 (UniProt Q86Y37) -0.094, C4A (UniProt P0C0L4) 0.047, C7orf25 isoform 2 (UniProt Q9BPX7) 0.05, C8orf88 (UniProt P0DMB2) 0.07, C16orf70 (UniProt Q9BSU1) 0.042, C1GALT1 (UniProt Q9NS00) -0.01, C16orf87 (UniProt Q6PH81) -0.013, CAP1 isoform 2 (UniProt Q01518) -0.009, C17orf53 (UniProt Q8N3J3) -0.075, C5orf34 (UniProt Q96MH7) -0.041, C2CD2 (UniProt Q9Y426) -0.202, C4orf46 (UniProt Q504U0) 0.047, C8orf37 (UniProt Q96NL8) 0.083, C1orf174 (UniProt Q8IYL3) 0.011, C6orf120 (UniProt Q7Z4R8) -0.007, C6orf136 isoform 4 (UniProt Q5SQH8) -0.029, C9orf16 (UniProt Q9BUW7) 0.088, C11orf74 (UniProt Q86VG3) 0.072

The targets below were run with Cn1cc(-c2ccc3c(c2)CCN3C(=O)Cc2cccc(C(F)(F)F)c2)c2c(N)ncnc21 in the same assay as above.
Outline: as §1

log2 fold change, inactive:
CAPNS1 (UniProt K7ES78) -0.006, CACUL1 (UniProt Q86Y37) 0.157, C4A (UniProt P0C0L4) 0.033, C7orf25 isoform 2 (UniProt Q9BPX7) -0.064, C8orf88 (UniProt P0DMB2) -0.134, C16orf70 (UniProt Q9BSU1) -0.091, C1GALT1 (UniProt Q9NS00) 0.016, C16orf87 (UniProt Q6PH81) -0.009, CAP1 isoform 2 (UniProt Q01518) -0.092, C17orf53 (UniProt Q8N3J3) 0.047, C5orf34 (UniProt Q96MH7) -0.058, C2CD2 (UniProt Q9Y426) 0.162, C4orf46 (UniProt Q504U0) 0.089, C8orf37 (UniProt Q96NL8) 0.056, C1orf174 (UniProt Q8IYL3) 0.057, C6orf120 (UniProt Q7Z4R8) 0.147, C6orf136 isoform 4 (UniProt Q5SQH8) -0.068, C9orf16 (UniProt Q9BUW7) 0.038, C11orf74 (UniProt Q86VG3) -0.087

These targets were tested with Cn1cc(CNCC2CCN(c3ncc(C(=O)NO)cn3)CC2)c2ccccc21 [quisinostat] in the same assay as above.
Outline: as §1

log2 fold change, inactive:
C2orf88 (UniProt Q9BSF0) 0.018, CAPNS1 (UniProt K7ES78) 0.247, CACUL1 (UniProt Q86Y37) 0.025, C4A (UniProt P0C0L4) -0.095, C7orf25 isoform 2 (UniProt Q9BPX7) -0.092, C8orf88 (UniProt P0DMB2) -0.042, C12orf4 (UniProt Q9NQ89) 0.176, C16orf70 (UniProt Q9BSU1) 0.036, C1GALT1 (UniProt Q9NS00) 0.025, C16orf87 (UniProt Q6PH81) 0.056, C14orf119 (UniProt Q9NWQ9) 0.016, CAP1 isoform 2 (UniProt Q01518) -0.154, C17orf53 (UniProt Q8N3J3) -0.079, C2CD2 (UniProt Q9Y426) -0.266, C8orf37 (UniProt Q96NL8) 0.004, CARD19 (UniProt Q96LW7) -0.091, C11orf24 (UniProt Q96F05) -0.181, C1orf174 (UniProt Q8IYL3) -0.097, C17orf80 (UniProt Q9BSJ5) 0.058, CABLES2 (UniProt Q9BTV7) -0.026, C9orf16 (UniProt Q9BUW7) 0.172, C5orf24 (UniProt Q7Z6I8) 0.046, C11orf74 (UniProt Q86VG3) -0.015

Each target was assayed with NC(=O)Nc1cc(-c2cccc(F)c2)sc1C(=O)N[C@H]1CCCNC1 in the same assay as above.
Outline: as §1

log2 fold change, inactive:
C2orf88 (UniProt Q9BSF0) -0.058, CAPNS1 (UniProt K7ES78) -0.002, CACUL1 (UniProt Q86Y37) 0.102, C4A (UniProt P0C0L4) 0.015, C7orf25 isoform 2 (UniProt Q9BPX7) -0.006, C8orf88 (UniProt P0DMB2) -0.011, C12orf4 (UniProt Q9NQ89) 0.083, C16orf70 (UniProt Q9BSU1) -0.005, C1GALT1 (UniProt Q9NS00) 0.028, C16orf87 (UniProt Q6PH81) -0.119, C14orf119 (UniProt Q9NWQ9) -0.057, CAP1 isoform 2 (UniProt Q01518) 0.063, C17orf53 (UniProt Q8N3J3) 0.059, C2CD2 (UniProt Q9Y426) 0.034, C8orf37 (UniProt Q96NL8) -0.01, CARD19 (UniProt Q96LW7) 0.11, C11orf24 (UniProt Q96F05) 0.036, C1orf174 (UniProt Q8IYL3) 0.067, C17orf80 (UniProt Q9BSJ5) -0.028, CABLES2 (UniProt Q9BTV7) 0.016, C9orf16 (UniProt Q9BUW7) -0.126, C5orf24 (UniProt Q7Z6I8) 0.034, C11orf74 (UniProt Q86VG3) -0.055
